Laboratory results from PubChem BioAssay AID540276 (National Center for Advancing Translational Sciences (NCATS), 2011).
Screen size: about 300,000 compounds; about 5,400 (1.8%) were called active. Inconclusive results, whose numbers are uncertain, are shown with a selection of clear calls. Calls come from the whole dose curve; tested in HEK293 cells. A potency beside an inconclusive call is a rough fit, not a confirmed value.

Test: qHTS for inhibitors of binding or entry into cells for Marburg Virus
Conditions: Marburg virus pseudotyped entry inhibition, cell reporter; series mostly up to 37.8 µM
Potency is the fitted concentration of half-maximal effect.

Row | SMILES | Potency
1 | COc1cc(C(C[N+](=O)[O-])c2c(C)[nH]c3ccccc23)cc(OC)c1OC (stereo unspecified) | inconclusive: 23.1 µM [inhibitor, single point]
2 | c1ccc(-c2csc(-c3cccnc3)n2)cc1 | inactive
3 | CCCc1nc2ccccc2c(C(=O)OCc2nnc(-c3cc(OC)c(OC)c(OC)c3)o2)c1CC | inconclusive: 14.1 µM [inhibitor, partial curve, poor fit]
4 | CC(CCc1ccccn1)(CCc1ccccn1)C(=O)c1ccccc1 | inconclusive: 20 µM [inhibitor, single point]
5 | COc1ccc(CCNC(=O)Cc2ccc(OCc3ccccc3)c(OC)c2[N+](=O)[O-])cc1OCc1ccccc1 | inconclusive: 8.91 µM [inhibitor, partial curve, poor fit]
6 | COc1cccc(Nc2nc(-c3cccc(N4C(=O)c5ccccc5C4=O)c3)cs2)c1 | inconclusive: 29.1 µM [inhibitor, single point]
7 | CCOc1ccc(NC(=O)CSc2nncc(=O)n2N)cc1 | inactive
8 | Cc1nc(N2CCC(C)CC2)c2c(C)c(C(=O)Nc3cccc(C(F)(F)F)c3)sc2n1 | inconclusive: 35.5 µM [inhibitor, single point]
9 | Cc1cc(C)cc(NC(=O)CSc2nc3c(oc4ccccc43)c(=O)n2-c2ccccc2)c1 | inconclusive: 0.0891 µM [activator, full curve, poor fit]
10 | COc1ccc(C(CNC(=O)c2cccc(NC(=O)c3cccs3)c2)N2CCCC2)cc1 (stereo unspecified) | inconclusive: 14.1 µM [inhibitor, single point]
11 | COc1ccc(-n2ncc3c(NCc4cccs4)ncnc32)cc1 | inactive
12 | CCC(=O)Nc1ccc(NC(=O)c2ccc3ccccc3c2)cc1 | inactive
13 | CCOc1ccc(S(=O)(=O)Nc2nc3ccccc3nc2N2CCN(C)CC2)cc1 | inactive
14 | Cc1ccc(C(=O)N2CCN(Cc3ccc4c(c3)OCO4)CC2)c(Cl)c1 | inconclusive: 1.58 µM [activator, partial curve, poor fit]
15 | Cc1cccc(N2C(=O)NC(=O)/C(=C\c3cc(C)n(-c4sc5c(c4C#N)CCCC5)c3C)C2=O)c1C | inconclusive: 6.31 µM [inhibitor, full curve, poor fit]
16 | COc1ccccc1NC(=O)NNC(=O)c1ccncc1 | inconclusive: 5.01 µM [inhibitor, full curve, poor fit]
17 | C/C(=N\OCC(=O)NCC(F)(F)F)c1cc2ccccc2o1 | inconclusive: 5.62 µM [activator, single point]
18 | Cc1ccc(C)c(N2CCN(C(=O)CCS(=O)(=O)c3ccc4c(c3)oc(=O)n4C)CC2)c1 | inactive
19 | Cc1ccc(NC(=O)CN2C(=O)C(c3ccc(C)cc3)=NC23CCCCCC3)cc1 | inconclusive: 11.2 µM [inhibitor, partial curve, poor fit]
20 | COc1ccc(S(=O)(=O)Nc2ccccc2OC)cc1N=Nc1c(O)[nH]c(=S)[nH]c1=O | inconclusive: 17.8 µM [inhibitor, partial curve, poor fit]
21 | COc1ccccc1OCCNC(=O)c1cccc(S(=O)(=O)N2CCN(C)CC2)c1 | inconclusive: 14.1 µM [activator, single point]
22 | COc1cc(CN(C(=O)c2ccccc2Br)c2ccccn2)cc(OC)c1OC | inconclusive: 20 µM [inhibitor, single point]

Reprinted at random: 2 entries already listed
Row | SMILES | Potency
10 | COc1ccc(C(CNC(=O)c2cccc(NC(=O)c3cccs3)c2)N2CCCC2)cc1 (stereo unspecified) | inconclusive: 14.1 µM [inhibitor, single point]
8 | Cc1nc(N2CCC(C)CC2)c2c(C)c(C(=O)Nc3cccc(C(F)(F)F)c3)sc2n1 | inconclusive: 35.5 µM [inhibitor, single point]

Remaining list, next part.

Row | SMILES | Potency
23 | CC(=O)NCCc1ccc(S(=O)(=O)Nc2ccc(NC(=O)c3ccc(F)cc3)cc2)cc1 | inactive
24 | CC(=O)Nc1ccc(S(=O)(=O)N2CCN(c3nc(NC4CCCC4)c4ccccc4n3)CC2)cc1 | inconclusive: 2.82 µM [inhibitor, partial curve, poor fit]
25 | CCn1c(SCC(=O)O)nnc1-c1ccc(S(=O)(=O)N2CCCC2)cc1 | inactive
26 | CCN(CC)CCNC(=O)c1ccc(NC(=O)Cc2ccccc2F)cc1 | inconclusive: 35.5 µM [activator, single point]
27 | CC1(C)SC(=Nc2ccccc2)N(S(=O)(=O)c2ccccc2)C1=O | inconclusive: 3.98 µM [inhibitor, single point]
28 | COc1ccc(-n2c(NC(=O)c3ccco3)c(C#N)c3nc4ccccc4nc32)cc1 | inconclusive: 6.31 µM [activator, single point]
29 | CCOc1nc(Nc2ccc(OC)c(Cl)c2)nc(OCC)n1 | inconclusive: 8.91 µM [inhibitor, partial curve, poor fit]
30 | Cc1ccc(NC(=O)CSCCc2ccccn2)nc1 | inconclusive: 0.411 µM [activator, partial curve, poor fit]
31 | Cc1ccc2cc(CN(CCN3CCOCC3)Cc3nnnn3Cc3ccco3)c(=O)[nH]c2c1C | inactive
32 | CC(=O)N(CC1CCCO1)C1(C(=O)NC2CCCC2)CCCCC1 (stereo unspecified) | inconclusive: 35.5 µM [activator, single point]
33 | COc1ccc(NC(=O)CSc2nnc(C3CCCCC3)o2)c(OC)c1 | inactive
34 | CCCCN(CC)CCNC(=O)c1cc2cc3ccc(Cl)cc3nc2o1 | inconclusive: 0.501 µM [inhibitor, full curve, poor fit]
35 | CCN(CC)C(=O)CSc1nc2cc3c(cc2c(=O)n1CCCC(=O)NCCc1ccc(OC)c(OC)c1)OCO3 | inactive
36 | COC(=O)C1=C(COc2ccc(C=O)cc2OC)NC(=O)NC1c1cc(C)ccc1C (stereo unspecified) | inconclusive: 1.58 µM [activator, partial curve, poor fit]
37 | Brc1cccc(-c2n[nH]c(-c3ccccc3)n2)c1 | inactive
38 | CC(=O)c1c(C)n(S(=O)(=O)c2ccc(Cl)cc2)c2ccc(NS(=O)(=O)c3ccc(Cl)cc3)cc12 | inconclusive: 20 µM [inhibitor, single point]
39 | COCCN(C(=O)COC(=O)C1CC1)c1c(N)n(Cc2ccccc2)c(=O)[nH]c1=O | inconclusive: 35.5 µM [activator, single point]
40 | COc1ccccc1N1CC(C(=O)Nc2ccccc2N2CCCC2)CC1=O (stereo unspecified) | inactive
41 | CCOC(=O)c1ccccc1NC(=O)NCc1c(-n2cccc2)sc2c1CCCC2 | inactive
42 | COc1ccc(/C=C(/CC(=O)Nc2ccccc2)c2nc3ccccc3s2)cc1 | inactive
43 | CC1(C)CC(NC(=O)c2sc3cc(Cl)ccc3c2Cl)CC(C)(C)N1 | inconclusive: 3.55 µM [inhibitor, partial curve, poor fit]
44 | Nc1nc2ccc(S(=O)(=O)c3ccc4nc(N)sc4c3)cc2s1 | inactive

Row | SMILES | Potency
45 | CC1(C)Oc2ccc3ccc(=O)oc3c2/C(=C/N)C1=O | inconclusive: 0.058 µM [inhibitor, partial curve, poor fit]
46 | CCCN(CCC)S(=O)(=O)c1ccc(C(=O)Nc2nnc(-c3cc(OC)cc(OC)c3)o2)cc1 | inconclusive: 35.5 µM [inhibitor, single point]
47 | COC(=O)c1ccc(C(=O)Nc2cc(Cl)ccc2Cl)cc1NC(=O)c1ccccc1C | inconclusive: 29.1 µM [inhibitor, single point]
48 | CN(C)S(=O)(=O)N(CC(=O)NCCSCc1ccc(Cl)cc1)c1ccccc1 | inconclusive: 22.4 µM [inhibitor, partial curve, poor fit]
49 | CN(CC(=O)Nc1ccccc1Br)C(=O)C(Cc1ccccc1)NC(=O)c1ccccc1 (stereo unspecified) | inconclusive: 35.5 µM [inhibitor, single point]
50 | CCN(CC)c1ccc(C=N/C(C#N)=C(\N)C#N)cc1 | inactive
51 | CCOc1ccc(NC(=O)Cn2c(=O)n(CC3CCC(C(=O)NCCc4ccccc4)CC3)c(=O)c3ccccc32)cc1 (stereo unspecified) | inactive
52 | COc1ccc(NC(=O)CSc2oc(-c3ccco3)nc2S(=O)(=O)c2ccc(C)cc2)c(OC)c1 | inactive
53 | Cn1ccnc1C1CCCCN1Cc1nc(Cc2cccc(C(F)(F)F)c2)no1 (stereo unspecified) | inconclusive: 6.31 µM [inhibitor, partial curve, poor fit]
54 | COc1cccc(C2CCCN2Cc2nc(-c3sccc3C)oc2C)c1 (stereo unspecified) | inconclusive: 11.2 µM [inhibitor, partial curve, poor fit]
55 | COc1ccc(-c2cn3cc(Cl)ccc3n2)cc1OC | inconclusive: 2.51 µM [activator, single point]
56 | Cc1nc(CSc2nsc(C)c2C#N)cs1 | inconclusive: 20 µM [activator, partial curve, poor fit]
57 | Cc1cc(O)c(CN2CC=C(c3ccccc3)CC2)cc1C(C)C | inconclusive: 7.08 µM [inhibitor, full curve, poor fit]
58 | CCN(CC)C(=O)C1CCCN(C/C=C/c2ccccc2)C1 (stereo unspecified) | inconclusive: 8.2 µM [inhibitor, partial curve, poor fit]
59 | CCCN(CCC)c1nc(Cl)nc(NCc2ccco2)n1 | inconclusive: 3.26 µM [inhibitor, full curve, poor fit]
60 | Cc1ccc2[nH]c(O)c(N=Nc3nc4ccccc4s3)c2c1 | inactive
61 | Clc1ccc(COn2c(-c3ccccc3)nc3ccccc32)cc1 | inactive
62 | O=[N+]([O-])c1ccc(Oc2ccc(F)cc2)c2ccncc12 | inactive
63 | CC(C)(C)N1CC(C(=O)c2ccccc2)C1c1ccccc1 (stereo unspecified) | inconclusive: 35.5 µM [inhibitor, single point]
64 | O=C(Nc1ccccc1C(=O)NCc1cccnc1)c1ccc(Cl)cc1Cl | inactive
65 | CCc1ccc2[nH]c(=O)c(CN(Cc3ccccc3OC)Cc3nnnn3Cc3ccco3)cc2c1 | inconclusive: 35.5 µM [inhibitor, single point]
66 | Cc1ccc(Oc2ccc(C(F)(F)F)cc2[N+](=O)[O-])c([N+](=O)[O-])n1 | inconclusive: 28.2 µM [activator, single point]
